Experimental findings from patent US20050244430A1 are described below.

The chains behind the UniProt entries cited, without tags or fusion partners. Where a name states a change or a piece, a line headed by the entry shows the natural chain unless it says otherwise. A line that says so, or that is headed by a name, gives the form on record, which may keep a tag or linker. Residues count along the entry.
UniProt O43187, residues 1-590: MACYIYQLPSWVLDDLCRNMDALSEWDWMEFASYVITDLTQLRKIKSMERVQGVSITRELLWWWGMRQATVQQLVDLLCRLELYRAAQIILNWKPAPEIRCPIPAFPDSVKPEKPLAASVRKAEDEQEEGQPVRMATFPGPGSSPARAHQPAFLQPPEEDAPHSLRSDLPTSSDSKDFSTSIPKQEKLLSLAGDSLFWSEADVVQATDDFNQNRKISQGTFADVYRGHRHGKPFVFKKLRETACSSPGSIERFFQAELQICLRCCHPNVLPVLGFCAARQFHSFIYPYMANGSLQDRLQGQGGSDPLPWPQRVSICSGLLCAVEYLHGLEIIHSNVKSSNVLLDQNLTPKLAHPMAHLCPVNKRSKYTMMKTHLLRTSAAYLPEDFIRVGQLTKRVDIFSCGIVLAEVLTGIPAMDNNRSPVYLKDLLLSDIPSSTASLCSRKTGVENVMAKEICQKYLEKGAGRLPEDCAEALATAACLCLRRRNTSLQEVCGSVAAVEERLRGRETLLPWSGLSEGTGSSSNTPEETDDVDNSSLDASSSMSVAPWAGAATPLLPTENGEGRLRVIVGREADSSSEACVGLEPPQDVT
HA-Mal (P58753, form named): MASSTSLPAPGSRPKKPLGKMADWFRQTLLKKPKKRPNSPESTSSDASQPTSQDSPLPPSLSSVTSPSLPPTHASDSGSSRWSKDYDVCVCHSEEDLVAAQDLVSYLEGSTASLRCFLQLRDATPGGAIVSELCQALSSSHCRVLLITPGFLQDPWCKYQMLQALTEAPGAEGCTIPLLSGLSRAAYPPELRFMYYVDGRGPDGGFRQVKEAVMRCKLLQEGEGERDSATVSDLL

These are yes or no findings as the source states them, for the method shown. In cells and extracts the contact can be indirect. Some entries that bind do so weakly or less than the wild type.

In this test the target is Myc-IRAK2 (UniProt O43187). Put plainly: co-immunoprecipitation from 293T lysates (not shown).

In the case of HA-Mal (from UniProt P58753 1-235), the binding entry is on record as “binds”.
